Source: PubChem BioAssay AID248 (DTP/NCI, 2004)
The list is a part of this screen's results and no random one: it is rich in T/C values a quarter to a half above the control, in often repeated tests (any T/C) and in doses without a T/C. Other doses and runs of a compound stand elsewhere. T/C gives the treated animals as a percentage of the vehicle group. Some doses have a count of surviving animals in place of a T/C: the source files T/C as zero there, which appears to mark a toxic dose or a test without result, not a measured value. Some survivor counts are full or nearly so, which does not show that the dose was tolerated: survival well below the control is almost never listed, so the zero probably covers shortened survival too. Survivors were counted at the toxicity check, usually on the fifth day, unless a day is given; later deaths do not show. Schedules are NCI's codes, taken here to give the interval after Q, in days (D) or hours (H), and the number of doses after X. Some entries hold several experiments; the results are listed from low to high. Some schedule codes hold Z or #, which are not explained here. Where survival is the endpoint, the PubChem record calls one and a half times the control and up active, and a quarter to a half above the control has no call in these data; cut-offs in other NCI protocols can differ.

Test system: L1210 leukemia ip in BDF1 mice, survival T/C
Assay: NCI In Vivo Anticancer Drug Screen. Data for tumor model L1210 Leukemia (intraperitoneal) in B6D2F1 (BDF1) mice
Details: T/C endpoint: mean survival time, higher T/C = longer survival
[1] = dose: 300.0 mg/kg/injection, schedule: Q01DX001 (ip), vehicle: carboxymethylcellulose (CMC)
[2] = dose: 100.0 mg/kg/injection, schedule: Q01DX001 (ip), vehicle: carboxymethylcellulose (CMC)
[3] = dose: 400.0 mg/kg/injection, schedule: Q01DX001 (ip), vehicle: carboxymethylcellulose (CMC)
[4] = dose: 200.0 mg/kg/injection, schedule: Q01DX001 (ip), vehicle: saline
[5] = dose: 400.0 mg/kg/injection, schedule: Q01DX001 (ip), vehicle: saline
[6] = dose: 400.0 mg/kg/injection, schedule: Q04DX002 (ip), vehicle: Klucel (hydroxypropylcellulose) (HPC)
[7] = dose: 200.0 mg/kg/injection, schedule: Q01DX001 (ip), vehicle: carboxymethylcellulose (CMC)
[8] = dose: 50.0 mg/kg/injection, schedule: Q01DX009 (ip), vehicle: saline with Tween-80
[9] = dose: 100.0 mg/kg/injection, schedule: Q01DX009 (ip), vehicle: saline with Tween-80
[10] = dose: 100.0 mg/kg/injection, schedule: Q04DX003 (ip), vehicle: saline with Tween-80
[11] = dose: 200.0 mg/kg/injection, schedule: Q04DX003 (ip), vehicle: saline with Tween-80
[12] = dose: 400.0 mg/kg/injection, schedule: Q04DX003 (ip), vehicle: saline with Tween-80
[13] = dose: 300.0 mg/kg/injection, schedule: Q01DX001 (ip), vehicle: saline

With COc1cc([C@@H]2c3cc4c(cc3[C@H](O)[C@H]3COC(=O)[C@H]23)OCO4)cc(OC)c1OC the survivor count (dose: 2.7 mg/kg/injection, schedule: Q01DX Z (ip), vehicle: carboxymethylcellulose (CMC)) was 5 of 10, the survivor count (dose: 75.0 mg/kg/injection, schedule: Q01DX001 (ip), vehicle: carboxymethylcellulose (CMC)) was 2 of 6 and the survivor count (dose: 150.0 mg/kg/injection, schedule: Q01DX001 (ip), vehicle: carboxymethylcellulose (CMC)) was 0 of 6. For the same compound, the survivor count [1] was 0 of 6.
For COc1cc(N(CCCl)CCCl)c(OC)cc1C=Nc1cccc(F)c1, the T/C (dose: 45.0 mg/kg/injection, schedule: Q01DX001 (ip), vehicle: Klucel (hydroxypropylcellulose) (HPC)) was 128 % of control, the T/C (dose: 45.0 mg/kg/injection, schedule: Q01DX009 (ip), vehicle: carboxymethylcellulose (CMC)) was 126 % of control and the T/C (dose: 50.0 mg/kg/injection, schedule: Q01DX001 (ip), vehicle: Klucel (hydroxypropylcellulose) (HPC)) was 126 % of control. The T/C (dose: 75.0 mg/kg/injection, schedule: Q01DX001 (ip), vehicle: Klucel (hydroxypropylcellulose) (HPC)) was 128 % of control, the T/C [2] was 135 % of control and the T/C (dose: 115.0 mg/kg/injection, schedule: Q01DX001 (ip), vehicle: Klucel (hydroxypropylcellulose) (HPC)) was 133 and 140 % of control. The T/C (dose: 145.0 mg/kg/injection, schedule: Q01DX001 (ip), vehicle: Klucel (hydroxypropylcellulose) (HPC)) was 127 % of control, the T/C (dose: 266.0 mg/kg/injection, schedule: Q01DX001 (ip), vehicle: carboxymethylcellulose (CMC)) was 133 % of control and the T/C [3] was 129 % of control.
For NC1CSSC1, the survivor count (dose: 25.0 mg/kg/injection, schedule: Q01DX009 (ip), vehicle: water) was 0 of 6, the survivor count (dose: 50.0 mg/kg/injection, schedule: Q01DX009 (ip), vehicle: water) was 0 of 6 and the survivor count (dose: 100.0 mg/kg/injection, schedule: Q01DX009 (ip), vehicle: water) was 0 of 6. The survivor count (dose: 200.0 mg/kg/injection, schedule: Q01DX009 (ip), vehicle: water) was 0 of 6 and the survivor count (dose: 400.0 mg/kg/injection, schedule: Q01DX009 (ip), vehicle: water) was 0 of 6.
O=CO.[Co] was tested, and the survivor count (dose: 100.0 mg/kg/injection, schedule: Q01DX001 (ip), vehicle: saline) was 0 of 6, the survivor count [4] was 0 of 6 and the survivor count [5] was 0 of 6.
For Oc1ccc(-c2ccc(O)c(O)c2)cc1O, the survivor count [1] was 2 of 6.
For O=C(CCCl)c1ccccc1, the survivor count [6] was 0 of 3.
With CCCC[As](=O)(O)CCCc1ccccc1 the survivor count (dose: 6.25 mg/kg/injection, schedule: Q01DX009 (ip), vehicle: saline) was 0 of 3, the survivor count (dose: 12.5 mg/kg/injection, schedule: Q01DX009 (ip), vehicle: saline) was 0 of 3 and the survivor count (dose: 25.0 mg/kg/injection, schedule: Q01DX009 (ip), vehicle: saline) was 0 of 3. For the same compound, the survivor count (dose: 50.0 mg/kg/injection, schedule: Q01DX009 (ip), vehicle: saline) was 0 of 3, the survivor count (dose: 100.0 mg/kg/injection, schedule: Q01DX009 (ip), vehicle: saline) was 0 of 3 and the survivor count (dose: 200.0 mg/kg/injection, schedule: Q01DX009 (ip), vehicle: saline) was 0 of 3.
Cc1cccc(SC(=O)Nc2ccccc2C(F)(F)F)c1 was tested, and the survivor count (dose: 200.0 mg/kg/injection, schedule: Q01DX009 (ip), vehicle: Klucel (hydroxypropylcellulose) (HPC)) was 3 of 6 and the survivor count (dose: 400.0 mg/kg/injection, schedule: Q01DX009 (ip), vehicle: Klucel (hydroxypropylcellulose) (HPC)) was 2 of 6.
Cc1cc(NC(=O)Nc2ccc(C3=NCCCN3)cc2)ccc1NC(=O)Nc1ccc(C2=NCCCN2)cc1 was tested, and the T/C (dose: 8.0 mg/kg/injection, schedule: Q01DX Z (ip), vehicle: water) was 128 % of control, the survivor count (dose: 15.0 mg/kg/injection, schedule: Q01DX Z (ip), vehicle: water) was 3 of 6 and the survivor count (dose: 20.0 mg/kg/injection, schedule: Q01DX Z (ip), vehicle: water) was 0 of 6. For the same compound, the T/C (dose: 45.0 mg/kg/injection, schedule: Q01DX009 (ip), vehicle: saline) was 147 % of control and the T/C (dose: 65.0 mg/kg/injection, schedule: Q01DX009 (ip), vehicle: saline) was 146 % of control.
For CCCCCCCCCCCCCCCC[n+]1cccc(C(=O)NCO)c1, the survivor count [3] was 2 of 4.
In the case of C=CC(C(=O)OCC)C(O)CCC (stereo not drawn), the survivor count (dose: 100.0 mg/kg/injection, schedule: Q01DX009 (ip), vehicle: Klucel (hydroxypropylcellulose) (HPC)) is reported as 5 of 6.
NC(CSS(=O)(=O)O)=NC1CCCC1 was tested, and the survivor count [2] was 1 of 6, the survivor count [7] was 0 of 6 and the survivor count [3] was 0 of 6.
In the case of CC1(C)CC(=O)C2C(C1)Nc1ccccc1NC2c1ccccc1[N+](=O)[O-] (stereo not drawn), the survivor count (dose: 50.0 mg/kg/injection, schedule: Q04DX002 (ip), vehicle: Klucel (hydroxypropylcellulose) (HPC)) is reported as 3 of 3 and the T/C [6] is reported as 127 % of control.
With Cn1nnc(N/N=C/c2ccccc2)n1 the survivor count [8] was 0 of 6, the survivor count [9] was 0 of 6 and the survivor count [10] was 2 of 6. The survivor count [11] was 0 of 6 and the survivor count [12] was 0 of 6.
With Cc1csc[n+]1C the survivor count [13] was 2 of 6.
With FC(F)(F)c1ccc2c(c1)N(CCCN(CCCl)CCCl)c1ccccc1S2 the survivor count (dose: 25.0 mg/kg/injection, schedule: Q01DX009 (ip), vehicle: saline with Tween-80) was 3 of 6, the survivor count [8] was 0 of 6 and the survivor count [9] was 1 of 6. The survivor count (dose: 150.0 mg/kg/injection, schedule: Q04DX003 (ip), vehicle: alcohol) was 3 of 6, the survivor count (dose: 225.0 mg/kg/injection, schedule: Q04DX003 (ip), vehicle: alcohol) was 1 of 6 and the survivor count (dose: 335.0 mg/kg/injection, schedule: Q04DX003 (ip), vehicle: alcohol) was 2 of 6.
CC(=O)Nc1ccc(S(=O)(=O)C2=CC(=O)c3ccccc3C2=O)cc1 was tested, and the survivor count [4] was 1 of 6 and the survivor count [5] was 0 of 6.
In the case of CCCCCCN(CCCCCC)CC(=O)Nc1ccc(S(=O)(=O)c2ccc(NC(=O)CN(CCCCCC)CCCCCC)cc2)cc1, the survivor count [2] is reported as 0 of 4 and 1 of 4, the survivor count [7] is reported as 0 of 4 and the survivor count [3] is reported as 0 of 4.
Nc1c(Cl)cc2c(c1Br)C(=O)c1ccccc1C2=O was tested, and the survivor count (dose: 200.0 mg/kg/injection, schedule: Q01DX001 (ip), vehicle: Klucel (hydroxypropylcellulose) (HPC)) was 3 of 3.
For CC(Br)C(=O)O (stereo not drawn), the survivor count [4] was 2 of 4 and the survivor count [5] was 1 of 4.
COc1cc(C(C)=O)ccc1OCc1ccccc1 was tested, and the survivor count [8] was 6 of 6, the survivor count [9] was 5 of 6 and the survivor count (dose: 150.0 mg/kg/injection, schedule: Q01DX009 (ip), vehicle: saline with Tween-80) was 5 of 6. The survivor count (dose: 200.0 mg/kg/injection, schedule: Q01DX009 (ip), vehicle: saline with Tween-80) was 5 of 6 and the survivor count (dose: 300.0 mg/kg/injection, schedule: Q01DX009 (ip), vehicle: saline with Tween-80) was 6 of 6.
Cc1nc(N)sc1N=Nc1cc(Br)ccc1Br was tested, and the survivor count [13] was 3 of 6.
O=C1OCC(Cl)=C1Cl was tested, and the survivor count [10] was 3 of 6, the survivor count [11] was 0 of 6 and the survivor count [12] was 0 of 6.
With OCCN1CCN(Cc2cccc3ccccc23)CC1 the survivor count [4] was 3 of 6 and the survivor count [5] was 0 of 6.
With O=C1NC2(c3ccccc3)CCCCC2O1 (stereo not drawn) the survivor count (dose: 150.0 mg/kg/injection, schedule: Q01DX001 (ip), vehicle: acetone) was 5 of 6.
With CCOC(=O)c1cnc(SC)nc1Nc1ccccc1[N+](=O)[O-] the survivor count (dose: 100.0 mg/kg/injection, schedule: Q01DX001 (ip), vehicle: Klucel (hydroxypropylcellulose) (HPC)) was 6 of 6.
With CCCCCCCCCCCCCCCCCC[n+]1ccc(C(N)=O)cc1 the survivor count (dose: 200.0 mg/kg/injection, schedule: Q04DX003 (ip), vehicle: saline) was 0 of 6 and the survivor count (dose: 400.0 mg/kg/injection, schedule: Q04DX003 (ip), vehicle: saline) was 0 of 6.
